This assay in a line: qHTS Assay for Modulators of Lamin A Splicing. As to conditions: HeLa LMNA splicing GFP/RFP minigene ratio, 48 h. The procedure, abridged:
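S3 HeLa stable clones carrying a lamin A-EGFP splicing minigene plus DsRed2 were seeded at 600 cells/well in Opti-MEM with 2% FBS, pin-dosed and incubated 48 h at 37°C. Acumen cytometry (488 nm) gave the GFP/RFP total-intensity ratio.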
For orientation: Quantitative high-throughput screening tests each substance at several concentrations.

Setting [1] is: measured here: GFP splicing reporter channel.
The mark [2] stands for this setting: measured here: RFP viability control channel.

Data on 36 compounds can be found in PubChem BioAssay AID1487 (National Center for Advancing Translational Sciences (NCATS), 2009).

This is one part of the list. Shown are side measurements of this screen, not its main read-out; they come without a call. Most of these compounds were active or inconclusive in the main read-out, so they are no random draw. Words in brackets tell the shape of the fitted curve; partial curves, single points and poor fits give uncertain potencies.

For the compound `COc1ccc(NS(=O)(=O)c2ccc(Br)s2)cc1OC`, the AC50 (in general, the midpoint of the concentration-response curve, whichever way the signal moves) was 4.47 µM [rising, single point] under setting [1] and 8.91 µM [rising, partial curve] under setting [2].

Turning to `C=CCN1C(=O)C(CC(=O)Nc2ccc(OC)cc2)N(Cc2ccco2)C1=S` (centres undefined), the half-maximal activity concentration (AC50) under setting [1] was 22.4 µM [rising, single point].

With `COc1cc(C=NCC2OCCc3ccccc32)cc(OC)c1` (centres undefined), the AC50 under setting [1] is 0.1 µM [rising, full curve]. Regarding `CCOC(=O)C1C(c2cc(OC)c(OC)c(OC)c2)NC(=S)NC1(O)C(F)(F)F` (centres undefined), the AC50 under setting [2] is 0.00447 µM [falling, full curve, poor fit]. Take `O=S(=O)(c1ccc(Cl)s1)N1CCN(Cc2ccccc2)CC1`: the AC50 was 20 µM [rising, single point] under setting [1] and 14.1 µM [rising, single point] under setting [2]. Turning to `COc1cc(Cl)c(C)cc1NC(=S)NN`, the AC50 under setting [2] is 14.1 µM [rising, single point]. Turning to `COc1cc2ccc(=O)oc2cc1O`, under setting [1], the AC50 was 0.0631 µM [falling, full curve, poor fit]. Still for that read-out and setting: the figure for `CCCn1nnc(NC(=O)COc2ccc(C3CCCCC3)cc2)n1` is 35.5 µM [rising, single point].

For `O=C(Nc1ccc2c(c1)CCC2)c1cc(S(=O)(=O)Nc2ccc(F)cc2)c(Cl)cc1Cl`, the AC50 by setting is: under setting [1], 17.8 µM [falling, single point]; under setting [2], 5.62 µM [rising, full curve, poor fit]. As for `Cc1cc(/C=N\NC(=O)COc2cccc3cccnc23)c(C)n1-c1ccc(Br)cc1`, the AC50 under setting [1] was 12.6 µM [rising, partial curve] and the AC50 under setting [2] is 12.6 µM [rising, partial curve]. For the compound `COc1cc(NS(=O)(=O)c2ccc(N)cc2)nc(OC)n1`, the AC50 by setting is: under setting [1], 0.000708 µM [rising, full curve, poor fit]; under setting [2], 0.00178 µM [rising, full curve, poor fit]. Turning to `CCOC(=O)CC(=O)CSc1nc2c(sc(=S)n2-c2ccc(OCC)cc2)c(=O)[nH]1`, the AC50 reads like this: under setting [1], 1.58 µM [falling, partial curve]; under setting [2], 2.82 µM [falling, partial curve]. Regarding `Cc1ccc(NC2=C(Cl)C(=O)OC2NC(=O)c2ccccc2)cc1` (centres undefined), the AC50 under setting [2] is 35.5 µM [rising, single point]. In the case of `CC[N+](CC)(CC(=O)Nc1c(C)cccc1C)Cc1ccccc1`, the AC50 is 0.0282 µM [falling, full curve, poor fit] under setting [1] and 0.00447 µM [falling, full curve, poor fit] under setting [2].

For the compound `CC(C)OC(=O)c1cc2c(ccn2C)n1CC(=O)N(Cc1ccccc1)c1ccc(F)cc1`, under setting [2], the AC50 was 11.2 µM [rising, partial curve]. Regarding `CCC(C)c1c(O)nc(SCC(=O)c2ccccc2)[nH]c1=O` (centres undefined), under setting [2], the AC50 was 11.2 µM [rising, single point]. With `CCOc1cc(/C=C2\SC(=N)N(c3nonc3N)C2=O)ccc1OCCN1CCOCC1`, the AC50 under setting [1] is 12.6 µM [falling, partial curve, poor fit].

For the compound `O=c1c(-c2ccc(F)cc2)nc2cnc(N3CCNCC3)nc2n1-c1ccccc1`, the AC50 was 12.6 µM [falling, partial curve, poor fit] under setting [1] and 22.4 µM [falling, single point] under setting [2].

With `O=C(O)CCN1C(=O)c2ccc(NC(=O)c3ccco3)cc2C1=O`, the AC50 under setting [1] is 0.0224 µM [falling, full curve, poor fit]. Take `CCN(CC)c1nc2ccccc2[nH]1`: the AC50 by setting is: under setting [1], 14.1 µM [falling, single point]; under setting [2], 15.8 µM [falling, single point]. Regarding `Cc1oncc1-c1csc(-c2ccccc2Cl)n1`, the AC50 runs as follows: under setting [1], 35.5 µM [rising, single point]; under setting [2], 20 µM [rising, partial curve]. Take `CC(C)n1c(SCC(=O)Nc2nc3c(s2)CCCC3)nc2c1c(=O)n(C)c(=O)n2C`: under setting [2], the AC50 is 35.5 µM [rising, single point]. As to `O=C1CCC(=O)N1c1ccc(NC2CCN(Cc3ccccc3)CC2)c([N+](=O)[O-])c1`, the AC50 under setting [1] is 5.62 µM [falling, single point]. For the compound `CCOC(=O)c1cc(-c2ccccc2)n(CC(=O)Nc2ccc(CC)cc2)c1C`, the AC50 under setting [2] was 2.51 µM [falling, single point]. Consider `COc1c(C)cccc1C(=O)NC(=S)Nc1cccc2nsnc12`, for which the AC50 under setting [1] was 31.6 µM [falling, single point] and the AC50 under setting [2] was 35.5 µM [falling, single point].

In the case of `Cc1ccc(N2CCN(S(=O)(=O)c3c(C)[nH]c(=O)[nH]c3=O)CC2C)cc1` (centres undefined), the AC50 under setting [2] was 0.0316 µM [falling, full curve, poor fit]. `O=C(N/N=C/c1cn(-c2ccccc2)nc1-c1cc2ccccc2o1)c1ccncc1`: the AC50 under setting [1] is 15.8 µM [rising, single point]. `COc1ccc(-c2nnn(CC(=O)c3ccc4c(c3)OCCO4)n2)cc1OC`: the AC50 under setting [1] is 22.4 µM [rising, single point] and the AC50 under setting [2] is 11.2 µM [rising, partial curve]. On to `N#CCc1nc2c3c4c(sc3ncn2n1)CCCC4`, for which the AC50 under setting [2] was 3.98 µM [falling, full curve]. The same measure, in the same setting: to `CC(=C/c1ccccc1)/C=N/NC(=O)CSc1nc(C)cc(C)n1` belongs 20 µM [rising, single point].

On to `CC(=O)c1cccc(CN2CCCC(CCC(=O)NCc3ccc(F)c(F)c3)C2)c1` (centres undefined), for which the AC50 under setting [1] is 0.0282 µM [rising, full curve, poor fit].

As for `CC1CC(C)CN(C(=O)COC(=O)c2cccc([N+](=O)[O-])c2)C1` (centres undefined), the AC50 under setting [2] is 0.562 µM [rising, full curve, poor fit].

For the compound `CCCCCCCCC(=O)N/N=C(\C)c1ccc(O)cc1O`, the AC50 under setting [2] was 15.8 µM [rising, single point]. As to `COC(=O)c1c(NC(=O)/C=C/c2ccco2)sc2c1CCC2`, the AC50 by setting is: under setting [1], 17.8 µM [rising, single point]; under setting [2], 35.5 µM [rising, single point].

Turning to `Cn1c(SCc2cc(=O)c3cc(Cl)ccc3[nH]2)nnc1-c1ccccc1`, under setting [1], the AC50 was 0.158 µM [rising, full curve, poor fit]. As to `Cc1csc(NC(=O)Cn2nc(C)c([N+](=O)[O-])c2C)n1`, under setting [2], the AC50 was 3.98 µM [rising, full curve, poor fit].
